Results reported in PubChem BioAssay AID2685 (National Center for Advancing Translational Sciences (NCATS), 2010).
The other results are listed elsewhere or left out. Shown are side measurements of this screen, not its main read-out; they come without a call. Compounds called inactive in the main read-out are mostly missing here. Words in brackets tell the shape of the fitted curve; partial curves, single points and poor fits give uncertain potencies.

Experiment: qHTS Assay for Lipid Storage Modulators in Drosophila S3 Cells;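 as to cell number change: cells counted by Cell Tracker Red CMTPX staining in the red channel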
Conditions: BODIPY lipid droplet fluorescence, 18-24 h; for cell number change: measured here: cell count max response, cells fed with added oleic acid
Summary of the method: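 Laser-scanning cytometry quantifies lipid droplet accumulation (500–530 nm total intensity; droplet/cell object ratio) in oleic acid-fed (400 uM added) Drosophila S3 cells treated with a concentration series. 20 uM Triacsin C defined 100% inhibition.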

[1] = measured here: lipid fluorescence (Fed channel) AC50, cells fed with added oleic acid
[2] = measured here: cell number channel AC50, cells fed with added oleic acid

Structure (SMILES)	cell number change [%]	AC50 [1]	AC50 [2]
CCC(CC)C(=O)Nc1cccc(C(=O)Nc2ccc(S(=O)(=O)Nc3ccc(C)cc3)cc2)c1	-1.12	4.11 µM [rising, single point]	
COc1ccc(N(CC(=O)NCC2CCCO2)C(=O)CCC(=O)Nc2nccs2)c(OC)c1 (stereo not given)	20.5		
COc1cc2c(cc1OC)C(c1ccccc1C(F)(F)F)CC(=O)N2 (stereo not given)	14.4	13 µM [falling, partial curve]	
COc1ccccc1NC(=O)C(C)OC(=O)c1ccc(-n2cnnn2)cc1 (stereo not given)	36.2		18.4 µM [rising, partial curve, poor fit]
CC1CCN(S(=O)(=O)c2ccc(F)c(C(=O)O)c2)CC1	7.64		
CCOc1ccccc1N1CC(C(=O)Nc2c(C)n(C)n(-c3ccccc3)c2=O)CC1=O (stereo not given)	-12	6.51 µM [rising, partial curve, poor fit]	0.231 µM [falling, partial curve, poor fit]
Cc1cc(C(=O)NNC(=S)Nc2cccc(C(F)(F)F)c2)nn1C	10.9	5.17 µM [rising, full curve, poor fit]	
CCOC(=O)C1CCN(c2c(Nc3cc(C)cc(C)c3)c(=O)c2=O)CC1	-0.955	0.13 µM [rising, full curve, poor fit]	
O=C(Nc1cccc(F)c1)c1ccc(S(=O)(=O)NCC2CCCO2)cc1 (stereo not given)	-4.47	29.1 µM [rising, single point]	
CC(C)NC(=O)c1ccc(C(C)C)cc1	14.8	20.6 µM [rising, single point]	
CCOc1ccccc1NC(=O)C(c1ccccc1)N1CCN(CC(=O)N2CCOCC2)CC1 (stereo not given)	7.5		
COc1cc2c(cc1NC(=S)Nc1cccc(C(F)(F)F)c1)oc1ccccc12	-23.2	6.51 µM [rising, partial curve]	
Cc1cc(-n2nc(C)cc2C)n2ncc(-c3ccccc3)c2n1	-22.5	0.00517 µM [rising, full curve, poor fit]	
CCOC(=O)[C@H]1[C@H]2COc3ccc(Br)cc3[C@@H]2N2C(=O)c3ccc(C)cc3NC(=O)[C@@]12C	-28.5	3.26 µM [rising, partial curve, poor fit]	
CCOc1cc(C(N)=O)cc(Br)c1OCc1ccccc1	-30.9	6.51 µM [falling, single point]	14.6 µM [falling, single point]
O=C(NCc1ccco1)C(=O)NCC1OCCN1C(=O)c1ccc(Cl)cc1 (stereo not given)	14.6	0.651 µM [falling, partial curve, poor fit]	
COc1cccc(C(=O)Nc2ccc(NC(=O)c3ccco3)cn2)c1	-6.82	0.103 µM [falling, full curve, poor fit]	
C=CCN(CC=C)Cc1ccc(C(=O)OC)o1	-19		
O=C(CN1C(=O)c2ccccc2C1=O)Oc1ccc(Cl)cc1	-64.9	5.17 µM [falling, single point]	29.1 µM [falling, single point]

Grouped by structure: those above with bromine
Structure (SMILES)	cell number change [%]	AC50 [1]	AC50 [2]
CCOC(=O)[C@H]1[C@H]2COc3ccc(Br)cc3[C@@H]2N2C(=O)c3ccc(C)cc3NC(=O)[C@@]12C	-28.5	3.26 µM [rising, partial curve, poor fit]	
CCOc1cc(C(N)=O)cc(Br)c1OCc1ccccc1	-30.9	6.51 µM [falling, single point]	14.6 µM [falling, single point]

Later entries:

Structure (SMILES)	cell number change [%]	AC50 [1]	AC50 [2]
NS(=O)(=O)c1ccc(CCNC(=O)COC(=O)C2CCC2)cc1	0.427		
O=C(CSc1ncn[nH]1)NN(c1ccccc1)c1ccccc1	52.8	16.4 µM [rising, single point]	0.0326 µM [rising, full curve, poor fit]
O=C(NC(=S)NCC1CCCO1)c1ccc(Cl)cc1Cl (stereo not given)			0.13 µM [rising, full curve, poor fit]
Cc1ccc(-c2cc(C(=O)N/N=C/c3c(C)nn(C)c3C)c3ccccc3n2)c(C)c1	22	3.66 µM [rising, full curve]	4.61 µM [rising, single point]
Cc1cc(-c2ccccc2)nc(N(C)N)c1S(C)(=O)=O	53.5	0.731 µM [rising, full curve, poor fit]	18.4 µM [rising, single point]
O=C(Nc1ccnn1C1CCN(Cc2ccccc2OC(F)F)CC1)c1cccc(F)c1	30.6		1.64 µM [rising, full curve]
COc1ccc(-c2c(C)oc3c(CN4CCOCC4)c(O)ccc3c2=O)cc1	3.35	29.1 µM [rising, single point]	
CC(=O)Nc1ccc(NC(=O)CSc2nnc(COc3ccccc3C)n2CC2CCCO2)cc1 (stereo not given)	154		5.8 µM [rising, full curve]
COc1ccc2c(c1OC)C(=O)OC2Nc1ncc(Br)cc1Br (stereo not given)	9.09	29.1 µM [falling, single point]	
CN(C)c1ccc(C(=O)N2CCCC(N3CCN(Cc4ccc5c(c4)OCO5)CC3)C2)cc1 (stereo not given)	-1.16	29.1 µM [falling, single point]	
CCOc1ccc(/C(CCC(=O)O)=N/NC(=S)NCCc2ccccc2)cc1	22.2		
COc1ccc(-c2csc(Nc3ccc(S(N)(=O)=O)cc3)n2)cc1	-4.28	8.2 µM [rising, partial curve]	
CCS(=O)(=O)N1CCC(C(=O)NCCN2CCOCC2)CC1	30.5	29.1 µM [rising, single point]	29.1 µM [rising, single point]
COc1ccc(OC)c(-n2nnnc2SCC(=O)Nc2ccc(C(=O)N3CCCCC3)cc2)c1	14.6	0.58 µM [rising, full curve]	0.326 µM [rising, full curve, poor fit]
COc1ccccc1/C=C/C(=O)NCC(=O)N/N=C/c1ccc(C(=O)O)cc1	-10.5	0.0058 µM [falling, full curve, poor fit]	
CCc1nn(CCCC(=O)N(C)Cc2ccccc2)c(=O)c2cc3occc3n12	5.73		
CC(=O)c1ccc(OCCCC(=O)NC2CCCCC2C)cc1 (stereo not given)	1.21	18.4 µM [rising, single point]	
O=C(Cc1ccc(Cl)cc1)NN1C(=O)c2ccccc2C1=O	30.4	0.231 µM [falling, full curve, poor fit]	20.6 µM [rising, single point]
